Some results were stated once for a whole list of compounds, not compound by compound.
Experiments:
Assay type in all cases: in vivo
[1] = tested on: Orchid Thrips (Dichromothrips corbetti); test: Action on orchid thrips, floral-immersion technique; conditions: 500 ppm; adult thrips; 72 hours after treatment
Experimental: Dichromothrips corbetti adults used for bioassay were obtained from a colony maintained continuously under laboratory conditions. For testing purposes, the test compound is diluted in a 1:1 mixture of acetone:water (vol:vol), plus Kinetic® HV at a rate of 0.01% v/v.
Thrips potency of each compound was evaluated by using a floral-immersion technique. All petals of individual, intact orchid flowers were dipped into treatment solution and allowed to dry in Petri dishes. Treated petals were placed into individual re-sealable plastic along with about 20 adult thrips. All test arenas were held under continuous light and a temperature of about 28° C. for duration of the assay. After 3 days, the numbers of live thrips were counted on each petal. The percent mortality was recorded 72 hours after treatment.

[2] = tested on: Silverleaf Whitefly (Bemisia argentifoli) (Adults); test: Action on silverleaf whitefly adults, sprayed cotton plants; conditions: 300 ppm, 3 days after treatment
Experimental: (§1) The active compounds were formulated by a Tecan liquid handler in 100% cyclohexanone as a 10,000 ppm solution supplied in tubes. The 10,000 ppm solution was serially diluted in 100% cyclohexanone to make interim solutions. These served as stock solutions for which final dilutions were made by the Tecan in 50% acetone:50% water (v/v) into 5 or 10 ml glass vials. A nonionic surfactant (Kinetic®) was included in the solution at a volume of 0.01% (v/v). The vials were then inserted into an automated electrostatic sprayer equipped with an atomizing nozzle for application to plants/insects.
Cotton plants at the cotyledon stage (one plant per pot) were sprayed by an automated electrostatic plant sprayer equipped with an atomizing spray nozzle. The plants were dried in the sprayer fume hood and then removed from the sprayer. Each pot was placed into a plastic cup and about 10 to 12 whitefly adults (approximately 3-5 days old) were introduced. The insects were collected using an aspirator and a nontoxic Tygon® tubing connected to a barrier pipette tip. The tip, containing the collected insects, was then gently inserted into the soil containing the treated plant, allowing insects to crawl out of the tip to reach the foliage for feeding. Cups were covered with a reusable screened lid. Test plants were maintained in a growth room at about 25° C. and about 20-40% relative humidity for 3 days, avoiding direct exposure to fluorescent light (24 hour photoperiod) to prevent trapping of heat inside the cup. Mortality was assessed 3 days after treatment, compared to untreated control plants.

[3] = tested on: Diamond Back Moth (Plutella xylostella); test: Action on diamond back moth, cabbage leaf dip; conditions: 500 ppm; 3rd instar larvae; 72 hours after treatment
Experimental: The active compound is dissolved at the desired concentration in a mixture of 1:1 (v/v) distilled water:acetone. Surfactant (Kinetic® HV) is added at a rate of 0.01% (v/v). The test solution is prepared at the day of use.
Leaves of cabbage were dipped in test solution and air-dried. Treated leaves were placed in petri dishes lined with moist filter paper and inoculated with ten 3rd instar larvae. Mortality was recorded 72 hours after treatment. Feeding damages were also recorded using a scale of 0-100%.

[4] = tested on: Southern Armyworm (Spodoptera eridania), 2nd Instar Larvae; test: Action on southern armyworm, sprayed lima bean plants; conditions: 300 ppm; 2nd instar larvae on lima bean; 4 days after treatment
Experimental: as §1, with “into 10” for “into 5”, “or 20” for “or 10”
Lima bean plants (variety Sieva) were grown 2 plants to a pot and selected for treatment at the 1st true leaf stage. Test solutions were sprayed onto the foliage by an automated electrostatic plant sprayer equipped with an atomizing spray nozzle. The plants were dried in the sprayer fume hood and then removed from the sprayer. Each pot was placed into perforated plastic bags with a zip closure. About 10 to 11 armyworm larvae were placed into the bag and the bags zipped closed. Test plants were maintained in a growth room at about 25° C. and about 20-40% relative humidity for 4 days, avoiding direct exposure to fluorescent light (24 hour photoperiod) to prevent trapping of heat inside the bags. Mortality and reduced feeding were assessed 4 days after treatment, compared to untreated control plants.

[5] = tested on: yellow fever mosquito (Aedes aegypti); conditions: 800 ppm; larval mortality visually assessed after 2 days
Experimental: For evaluating control of yellow fever mosquito (Aedes aegypti) the test unit consisted of 96-well-microtiter plates containing 200 μl of tap water per well and 5-15 freshly hatched A. aegypti larvae.
The active compounds or mixtures were formulated using a solution containing 75% (v/v) water and 25% (v/v) DMSO. Different concentrations of formulated compounds or mixtures were sprayed onto the insect diet at 2.5 μl, using a custom built micro atomizer, at two replications. For experimental mixtures in these tests identical volumes of both mixing partners at the desired concentrations respectively, were mixed together.
After application, microtiter plates were incubated at 28±1° C., 80±5% RH for 2 days. Larval mortality was then visually assessed.

[6] = tested on: boll weevil (Anthonomus grandis); test: Action on boll weevil, eggs on insect diet in 96-well microtiter plates; conditions: 800 ppm; egg and larval mortality after 5 days
Experimental: For evaluating control of boll weevil (Anthonomus grandis) the test unit consisted of 96-well-microtiter plates containing an insect diet and 5-10 A. grandis eggs.
The compounds were formulated using a solution containing 75% (v/v) water and 25% (v/v) DMSO. Different concentrations of formulated compounds were sprayed onto the insect diet at 5 μl, using a custom built micro atomizer, at two replications.
After application, microtiter plates were incubated at about 25+1° C. and about 75+5% relative humidity for 5 days. Egg and larval mortality was then visually assessed.

[7] = tested on: tobacco budworm (Heliothis virescens); test: Action on tobacco budworm, eggs on insect diet in 96-well microtiter plates; conditions: 800 ppm; egg and larval mortality after 5 days
Experimental: For evaluating control of tobacco budworm (Heliothis virescens) the test unit consisted of 96-well-microtiter plates containing an insect diet and 15-25 H. virescens eggs.
The compounds were formulated using a solution containing 75% v/v water and 25% v/v DMSO. Different concentrations of formulated compounds were sprayed onto the insect diet at 10 μl, using a custom built micro atomizer, at two replications.
After application, microtiter plates were incubated at about 28+1° C. and about 80+5% relative humidity for 5 days. Egg and larval mortality was then visually assessed.

Structure (SMILES)	mortality in comparison with untreated controls [1]	mortality in comparison with untreated controls [2]	mortality in comparison with untreated controls [3]	mortality in comparison with untreated controls [4]	mortality in comparison with untreated controls [5]	mortality in comparison with untreated controls [6]	mortality in comparison with untreated controls [7]
CC(C)c1ccccc1N1C(=O)CSC1=NN=Cc1ccc2c(C(=N)Nc3ccc(OC(F)(F)C(F)(F)F)cc3)nn(C)c2c1 [Example C-30]	at least 75%	at least 75%	at least 75%	at least 75%	–	–	–
CC(C)c1ccccc1NC(=S)NN=Cc1ccc2c(C(=N)Nc3ccc(C(F)(F)F)cc3)nn(C)c2c1 [Example C-31]	at least 75%	at least 75%	at least 75%	at least 75%	at least 50%	at least 75%	at least 75%
CC(C)c1ccccc1N1C(=O)CSC1=NN=Cc1ccc2c(C(=N)Nc3ccc(C(F)(F)F)cc3)nn(C)c2c1 [Example C-32]	at least 75%	at least 75%	at least 75%	at least 75%	at least 50%	at least 75%	at least 75%
CC(C)c1ccccc1NC(=S)NN=Cc1ccc2c(C(=Nc3ccc(OC(F)(F)F)cc3)N(C)C)nn(C)c2c1 [Example C-22]	at least 75%	at least 75%	at least 75%	at least 75%	at least 50%	at least 75%	at least 75%
CC(C)c1ccccc1NC(=S)NN=Cc1ccc2c(C(=N)Nc3ccc(C(F)(F)F)cn3)nn(C)c2c1 [Example C-33]	at least 75%	at least 75%	at least 75%	at least 75%	at least 50%	at least 75%	at least 75%
CC(C)c1ccccc1N1C(=O)CSC1=NN=Cc1ccc2c(C(=Nc3ccc(OC(F)(F)F)cc3)N(C)C)nn(C)c2c1 [Example C-23]	at least 75%	at least 75%	at least 75%	at least 75%	at least 50%	at least 75%	at least 75%
CCn1nc(C(=N)Nc2ccc(OC(F)(F)F)cc2)c2ccc(C=NN3C(=O)CSC3=Nc3ccccc3C(C)C)cc21 [Example C-44]	at least 75%	at least 75%	at least 75%	at least 75%	–	–	–
